The supplement of paper PMC10849652
This is one part of the list.

Chains of the proteins cited; added tags and fusions are not shown. Lines headed by an entry give the natural chain unless they say otherwise; changes in a name come on top.
UniProt Q9BQ67, whole entry, looked up: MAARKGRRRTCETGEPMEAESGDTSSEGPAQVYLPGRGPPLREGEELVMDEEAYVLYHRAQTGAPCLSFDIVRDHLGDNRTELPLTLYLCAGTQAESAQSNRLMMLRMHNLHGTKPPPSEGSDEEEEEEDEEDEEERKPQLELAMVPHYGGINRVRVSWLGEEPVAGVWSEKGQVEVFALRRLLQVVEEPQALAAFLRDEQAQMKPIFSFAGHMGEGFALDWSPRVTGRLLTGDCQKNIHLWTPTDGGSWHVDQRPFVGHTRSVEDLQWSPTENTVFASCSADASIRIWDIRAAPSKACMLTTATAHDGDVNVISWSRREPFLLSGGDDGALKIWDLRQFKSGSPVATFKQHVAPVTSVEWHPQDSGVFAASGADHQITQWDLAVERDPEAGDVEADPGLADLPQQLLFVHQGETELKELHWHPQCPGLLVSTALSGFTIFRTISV
UniProt Q8WUA4: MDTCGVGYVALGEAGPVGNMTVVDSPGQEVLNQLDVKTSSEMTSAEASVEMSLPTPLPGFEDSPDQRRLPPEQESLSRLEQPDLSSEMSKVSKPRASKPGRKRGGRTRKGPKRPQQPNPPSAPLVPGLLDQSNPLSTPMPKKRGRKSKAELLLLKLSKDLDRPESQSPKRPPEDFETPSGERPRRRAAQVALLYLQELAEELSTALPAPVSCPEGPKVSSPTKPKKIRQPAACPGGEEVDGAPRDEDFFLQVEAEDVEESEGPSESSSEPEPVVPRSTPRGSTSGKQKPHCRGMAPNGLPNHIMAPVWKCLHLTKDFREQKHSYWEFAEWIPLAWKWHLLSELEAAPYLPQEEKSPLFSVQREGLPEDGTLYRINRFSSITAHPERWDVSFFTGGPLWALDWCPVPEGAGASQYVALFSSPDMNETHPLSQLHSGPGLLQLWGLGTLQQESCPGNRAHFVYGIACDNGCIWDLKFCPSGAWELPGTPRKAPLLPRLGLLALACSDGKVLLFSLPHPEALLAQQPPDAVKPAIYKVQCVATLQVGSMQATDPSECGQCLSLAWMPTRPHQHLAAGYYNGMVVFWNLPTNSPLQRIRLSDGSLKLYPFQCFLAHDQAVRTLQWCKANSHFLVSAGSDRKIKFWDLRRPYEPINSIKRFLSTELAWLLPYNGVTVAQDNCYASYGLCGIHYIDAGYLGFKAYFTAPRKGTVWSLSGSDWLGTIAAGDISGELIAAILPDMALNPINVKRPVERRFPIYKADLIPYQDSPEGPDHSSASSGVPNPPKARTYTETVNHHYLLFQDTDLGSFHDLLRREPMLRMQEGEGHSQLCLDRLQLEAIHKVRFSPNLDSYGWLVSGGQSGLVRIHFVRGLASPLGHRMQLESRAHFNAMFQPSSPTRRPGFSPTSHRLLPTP
UniProt Q8IYU2: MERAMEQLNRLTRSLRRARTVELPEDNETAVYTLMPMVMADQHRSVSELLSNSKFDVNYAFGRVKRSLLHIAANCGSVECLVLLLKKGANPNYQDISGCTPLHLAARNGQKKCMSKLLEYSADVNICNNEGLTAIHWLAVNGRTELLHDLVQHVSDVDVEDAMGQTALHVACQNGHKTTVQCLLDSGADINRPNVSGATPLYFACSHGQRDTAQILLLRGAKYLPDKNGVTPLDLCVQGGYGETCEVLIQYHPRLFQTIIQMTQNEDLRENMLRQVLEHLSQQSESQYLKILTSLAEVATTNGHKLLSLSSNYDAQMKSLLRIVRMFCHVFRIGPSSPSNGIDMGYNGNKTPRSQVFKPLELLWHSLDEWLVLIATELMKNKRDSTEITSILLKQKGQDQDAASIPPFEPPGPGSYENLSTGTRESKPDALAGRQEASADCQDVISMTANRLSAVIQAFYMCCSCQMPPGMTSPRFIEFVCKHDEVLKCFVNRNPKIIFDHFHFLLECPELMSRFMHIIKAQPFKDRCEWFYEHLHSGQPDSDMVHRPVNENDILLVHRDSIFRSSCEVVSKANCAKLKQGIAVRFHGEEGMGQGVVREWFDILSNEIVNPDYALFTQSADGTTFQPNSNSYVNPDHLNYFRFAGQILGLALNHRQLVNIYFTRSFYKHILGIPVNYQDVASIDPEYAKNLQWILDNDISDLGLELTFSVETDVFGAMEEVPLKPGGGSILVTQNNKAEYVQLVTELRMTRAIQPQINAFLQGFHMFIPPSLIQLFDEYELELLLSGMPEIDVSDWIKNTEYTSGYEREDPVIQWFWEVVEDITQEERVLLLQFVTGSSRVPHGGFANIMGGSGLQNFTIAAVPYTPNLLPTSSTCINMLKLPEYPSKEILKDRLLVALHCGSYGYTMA
UniProt P52657, whole entry, looked up: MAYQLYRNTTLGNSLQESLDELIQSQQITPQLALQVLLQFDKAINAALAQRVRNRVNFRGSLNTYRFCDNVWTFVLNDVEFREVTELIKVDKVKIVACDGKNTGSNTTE
UniProt P78347: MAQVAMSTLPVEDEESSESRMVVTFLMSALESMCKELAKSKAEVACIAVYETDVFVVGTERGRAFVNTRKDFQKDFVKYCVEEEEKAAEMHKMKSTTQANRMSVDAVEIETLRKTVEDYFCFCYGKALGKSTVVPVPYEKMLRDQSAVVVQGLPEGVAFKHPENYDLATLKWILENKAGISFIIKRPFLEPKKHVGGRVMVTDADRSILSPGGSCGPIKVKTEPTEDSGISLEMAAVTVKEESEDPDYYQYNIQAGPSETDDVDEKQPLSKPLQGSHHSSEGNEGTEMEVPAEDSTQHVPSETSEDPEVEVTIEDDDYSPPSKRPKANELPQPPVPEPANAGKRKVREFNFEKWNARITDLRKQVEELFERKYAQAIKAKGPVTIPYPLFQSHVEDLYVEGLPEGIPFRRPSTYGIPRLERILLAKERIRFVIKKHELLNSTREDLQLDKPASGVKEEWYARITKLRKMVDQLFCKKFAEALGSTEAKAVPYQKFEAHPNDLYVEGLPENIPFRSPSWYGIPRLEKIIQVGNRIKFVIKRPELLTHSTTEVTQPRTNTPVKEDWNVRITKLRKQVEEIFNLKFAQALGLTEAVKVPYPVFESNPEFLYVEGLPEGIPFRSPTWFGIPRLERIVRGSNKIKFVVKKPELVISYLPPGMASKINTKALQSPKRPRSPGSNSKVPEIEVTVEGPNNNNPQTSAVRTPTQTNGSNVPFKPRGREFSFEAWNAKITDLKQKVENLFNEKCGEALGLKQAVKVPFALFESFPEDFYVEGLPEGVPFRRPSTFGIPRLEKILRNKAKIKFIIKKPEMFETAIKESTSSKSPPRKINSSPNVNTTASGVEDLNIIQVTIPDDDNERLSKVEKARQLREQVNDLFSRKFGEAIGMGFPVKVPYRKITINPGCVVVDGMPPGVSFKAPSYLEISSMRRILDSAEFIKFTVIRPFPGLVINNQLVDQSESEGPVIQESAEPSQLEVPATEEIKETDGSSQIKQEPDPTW
UniProt Q96CS2: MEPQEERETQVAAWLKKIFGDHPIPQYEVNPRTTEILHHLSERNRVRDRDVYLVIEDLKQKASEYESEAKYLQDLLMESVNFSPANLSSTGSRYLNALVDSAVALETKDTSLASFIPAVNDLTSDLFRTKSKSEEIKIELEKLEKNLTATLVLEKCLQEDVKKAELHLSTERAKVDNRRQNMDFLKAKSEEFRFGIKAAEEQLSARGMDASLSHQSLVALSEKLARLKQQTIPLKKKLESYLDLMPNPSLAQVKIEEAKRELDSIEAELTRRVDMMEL
UniProt Q13889: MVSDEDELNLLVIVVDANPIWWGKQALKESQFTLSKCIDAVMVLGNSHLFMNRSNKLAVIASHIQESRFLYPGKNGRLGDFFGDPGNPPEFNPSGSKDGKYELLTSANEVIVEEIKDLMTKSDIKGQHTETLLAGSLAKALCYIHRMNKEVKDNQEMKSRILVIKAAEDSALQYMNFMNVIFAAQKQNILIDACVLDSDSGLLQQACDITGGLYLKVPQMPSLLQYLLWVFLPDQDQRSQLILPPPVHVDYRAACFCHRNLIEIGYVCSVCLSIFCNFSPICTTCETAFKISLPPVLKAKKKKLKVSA
UniProt Q92522: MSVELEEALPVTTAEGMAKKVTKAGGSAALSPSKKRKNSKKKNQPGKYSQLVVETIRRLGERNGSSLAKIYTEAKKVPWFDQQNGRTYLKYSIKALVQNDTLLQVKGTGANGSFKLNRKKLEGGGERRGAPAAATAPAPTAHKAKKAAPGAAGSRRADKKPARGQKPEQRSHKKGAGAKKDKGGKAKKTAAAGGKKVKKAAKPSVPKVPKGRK
UniProt P30711: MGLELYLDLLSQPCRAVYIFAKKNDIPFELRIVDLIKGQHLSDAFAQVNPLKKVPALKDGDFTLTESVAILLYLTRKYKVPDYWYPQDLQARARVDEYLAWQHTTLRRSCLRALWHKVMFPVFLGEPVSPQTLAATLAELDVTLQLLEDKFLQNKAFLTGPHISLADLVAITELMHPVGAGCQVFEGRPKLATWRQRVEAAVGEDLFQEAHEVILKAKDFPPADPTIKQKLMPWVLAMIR
UniProt O95479: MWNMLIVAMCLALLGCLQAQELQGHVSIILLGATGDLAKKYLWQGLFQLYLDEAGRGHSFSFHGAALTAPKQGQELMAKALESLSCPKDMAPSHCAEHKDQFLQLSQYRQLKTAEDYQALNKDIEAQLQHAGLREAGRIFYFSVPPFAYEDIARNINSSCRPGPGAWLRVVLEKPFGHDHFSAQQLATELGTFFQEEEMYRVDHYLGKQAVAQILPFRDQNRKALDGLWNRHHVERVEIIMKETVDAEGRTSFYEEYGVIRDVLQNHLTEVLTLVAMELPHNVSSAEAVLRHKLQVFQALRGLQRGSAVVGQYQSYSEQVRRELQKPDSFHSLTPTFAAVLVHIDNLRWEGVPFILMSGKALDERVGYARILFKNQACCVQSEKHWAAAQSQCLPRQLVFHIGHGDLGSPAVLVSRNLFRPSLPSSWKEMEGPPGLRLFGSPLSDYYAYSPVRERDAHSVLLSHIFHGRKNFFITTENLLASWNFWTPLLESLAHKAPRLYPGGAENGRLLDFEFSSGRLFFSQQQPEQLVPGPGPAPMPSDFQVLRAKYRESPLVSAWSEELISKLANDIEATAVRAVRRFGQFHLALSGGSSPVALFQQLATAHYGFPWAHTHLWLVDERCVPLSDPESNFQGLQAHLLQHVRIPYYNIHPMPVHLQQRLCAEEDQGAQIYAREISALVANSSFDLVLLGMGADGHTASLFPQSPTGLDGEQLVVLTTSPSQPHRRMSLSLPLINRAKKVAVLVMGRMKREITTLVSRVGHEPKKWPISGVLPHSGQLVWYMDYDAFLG
UniProt Q03013: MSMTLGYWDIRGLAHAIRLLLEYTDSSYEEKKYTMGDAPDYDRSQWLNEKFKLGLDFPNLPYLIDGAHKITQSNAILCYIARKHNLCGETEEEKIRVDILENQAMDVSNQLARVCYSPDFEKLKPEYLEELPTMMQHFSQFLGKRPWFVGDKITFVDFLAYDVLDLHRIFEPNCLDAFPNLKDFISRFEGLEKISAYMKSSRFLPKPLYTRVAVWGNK
UniProt P16403, whole entry, looked up: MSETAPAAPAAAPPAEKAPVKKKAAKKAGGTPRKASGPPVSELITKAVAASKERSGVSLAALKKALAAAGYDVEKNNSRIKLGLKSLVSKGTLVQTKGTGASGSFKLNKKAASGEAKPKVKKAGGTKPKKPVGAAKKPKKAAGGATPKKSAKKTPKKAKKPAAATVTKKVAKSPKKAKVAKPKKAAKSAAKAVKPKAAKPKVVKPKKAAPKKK
UniProt Q8WUI4: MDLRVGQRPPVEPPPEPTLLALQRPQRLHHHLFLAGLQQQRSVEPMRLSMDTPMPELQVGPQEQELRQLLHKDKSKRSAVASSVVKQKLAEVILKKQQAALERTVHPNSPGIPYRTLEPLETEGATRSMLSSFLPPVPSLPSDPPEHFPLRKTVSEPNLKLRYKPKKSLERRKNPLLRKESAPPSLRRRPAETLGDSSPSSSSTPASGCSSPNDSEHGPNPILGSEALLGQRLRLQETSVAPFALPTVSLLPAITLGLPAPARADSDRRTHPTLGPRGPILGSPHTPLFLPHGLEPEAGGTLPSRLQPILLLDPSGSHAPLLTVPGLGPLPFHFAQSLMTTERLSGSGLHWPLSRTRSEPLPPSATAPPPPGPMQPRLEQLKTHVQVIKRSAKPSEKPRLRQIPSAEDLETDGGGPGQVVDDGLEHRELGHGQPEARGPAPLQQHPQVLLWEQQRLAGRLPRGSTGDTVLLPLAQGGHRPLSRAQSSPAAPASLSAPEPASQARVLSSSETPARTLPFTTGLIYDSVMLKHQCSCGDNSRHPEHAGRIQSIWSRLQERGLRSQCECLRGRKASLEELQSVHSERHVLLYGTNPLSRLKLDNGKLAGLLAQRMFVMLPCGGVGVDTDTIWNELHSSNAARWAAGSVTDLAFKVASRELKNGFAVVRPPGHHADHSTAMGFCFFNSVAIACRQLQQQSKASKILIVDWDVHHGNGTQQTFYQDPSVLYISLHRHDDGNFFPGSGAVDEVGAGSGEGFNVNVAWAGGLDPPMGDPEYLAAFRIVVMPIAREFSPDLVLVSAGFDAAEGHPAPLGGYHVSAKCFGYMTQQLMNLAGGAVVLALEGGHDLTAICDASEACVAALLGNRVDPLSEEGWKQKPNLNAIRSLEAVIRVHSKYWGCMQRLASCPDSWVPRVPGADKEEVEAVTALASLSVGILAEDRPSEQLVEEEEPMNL

How the values were obtained:
Assay in all cases: log2 fold change, soluble protein after heating vs DMSO (PISA); higher = thermal stabilisation; K562 lysate, 10 uM; active = over 0.2 and 3.5 SD of the protein, either way, in both replicates (recomputed)
lapatinib = compound: CS(=O)(=O)CCNCc1ccc(-c2ccc3ncnc(Nc4ccc(OCc5cccc(F)c5)c(Cl)c4)c3c2)o1 [lapatinib]
Summary of the method: (§1)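 The values are log-two fold changes in thermal stability compared with solvent controls and come from duplicates. They were obtained by TMTpro 16plex LC-MS/MS, with channel sums equalised, on the supernatant after 21,000xg for 90 min. That supernatant came from crude K562 extract at 1 mg/mL protein treated with 10 μM compound for 30 min, heated for 3 min across 48°C-58°C, pooled and brought to 0.5% NP-40 at 4°C.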

pictilisib = compound: CS(=O)(=O)N1CCN(Cc2cc3nc(-c4cccc5[nH]ncc45)nc(N4CCOCC4)c3s2)CC1 [pictilisib]
Summary of the method: as §1

crizotinib = compound: C[C@@H](Oc1cc(-c2cnn(C3CCNCC3)c2)cnc1N)c1c(Cl)ccc(F)c1Cl [crizotinib]
Summary of the method: as §1

[1] = compound: C[C@H](C1=CC=C(C=C1)C(=O)NC2=C3C=CNC3=NC=C2)N
Summary of the method: as §1

duvelisib = compound: C[C@H](Nc1ncnc2nc[nH]c12)c1cc2cccc(Cl)c2c(=O)n1-c1ccccc1 [duvelisib]
Summary of the method: as §1

gandotinib = compound: Cc1cc(Nc2cc(CN3CCOCC3)c3nc(C)c(Cc4ccc(Cl)cc4F)n3n2)n[nH]1 [gandotinib]
Summary of the method: as §1

tozasertib = compound: Cc1cc(Nc2cc(N3CCN(C)CC3)nc(Sc3ccc(NC(=O)C4CC4)cc3)n2)n[nH]1 [tozasertib]
Summary of the method: as §1

doramapimod = compound: Cc1ccc(-n2nc(C(C)(C)C)cc2NC(=O)Nc2ccc(OCCN3CCOCC3)c3ccccc23)cc1 [doramapimod]
Summary of the method: as §1

bafetinib = compound: Cc1ccc(NC(=O)c2ccc(CN3CC[C@H](N(C)C)C3)c(C(F)(F)F)c2)cc1Nc1nccc(-c2cncnc2)n1 [bafetinib]
Summary of the method: as §1

[2] = compound: Cc1cccc(CC(=O)N2CCc3c2ccc(-c2cn(C)c4ncnc(N)c24)c3F)n1
Summary of the method: as §1

| Target | log2 fold change (lapatinib) | log2 fold change (pictilisib) | log2 fold change (crizotinib) | log2 fold change [1] | log2 fold change (duvelisib) | log2 fold change (gandotinib) | log2 fold change (tozasertib) | log2 fold change (doramapimod) | log2 fold change (bafetinib) | log2 fold change [2] |
| --- | --- | --- | --- | --- | --- | --- | --- | --- | --- | --- |
| GSTO1 (UniProt Q5TA02) | inactive: -0.191 |  |  |  |  |  |  |  |  |  |
| GSTP1 (UniProt P09211) | inactive: -0.015 | inactive: 0.021 | inactive: -0.018 | inactive: -0.025 | inactive: 0.001 | inactive: -0.035 | inactive: -0.007 | inactive: -0.006 | inactive: 0.01 | inactive: 0.003 |
| HDAC3 (UniProt O15379) | inactive: 0.02 | inactive: 0.008 | inactive: 0.015 | inactive: 0.076 | inactive: -0.067 | inactive: -0.015 | inactive: 0.054 | inactive: -0.024 | inactive: -0.005 | inactive: -0.045 |
| HAGH (UniProt Q16775) | inactive: -0.05 | inactive: -0.024 | inactive: -0.007 | inactive: -0.057 | inactive: -0.049 | inactive: 0.046 | inactive: 0.03 | inactive: -0.039 | inactive: -0.058 | inactive: 0.043 |
| GRWD1 (UniProt Q9BQ67) | inactive: -0.007 | inactive: -0.024 | inactive: -0.026 | inactive: -0.022 | inactive: 0.022 | inactive: -0.014 | inactive: -0.016 | inactive: 0.023 | inactive: -0.048 | inactive: 0.042 |
| HARS (UniProt P12081) | inactive: 0.008 | inactive: 0.01 | inactive: -0.009 | inactive: 0.028 | inactive: 0.014 | inactive: -0.052 | inactive: 0.006 | inactive: 0.003 | inactive: 0.015 | inactive: -0.01 |
| GTF3C2 (UniProt Q8WUA4) | inactive: -0.016 | inactive: -0.042 | inactive: -0.017 | inactive: -0.127 | inactive: 0.018 | inactive: 0.068 | inactive: -0.055 | inactive: -0.014 | inactive: -0.107 | inactive: 0.124 |
| HACE1 (UniProt Q8IYU2) | inactive: -0.05 | inactive: 0.005 | inactive: 0.026 | active: -0.491 | inactive: 0.033 | inactive: 0.302 | inactive: -0.036 | inactive: 0.015 | inactive: -0.036 | inactive: 0.426 |
| GSTK1 (UniProt Q9Y2Q3) | inactive: 0.007 | inactive: -0.032 | inactive: -0.006 | inactive: -0.003 | inactive: 0.007 | inactive: -0.05 | inactive: 0.028 | inactive: -0.005 | inactive: -0.02 | inactive: 0.027 |
| HBS1L (UniProt Q9Y450) | inactive: 0.009 | inactive: 0.001 | inactive: -0.048 | inactive: 0.037 | inactive: 0.006 | inactive: -0.062 | inactive: 0.018 | inactive: 0.029 | inactive: -0.044 | inactive: 0.01 |
| GTPBP3 isoform 2 (UniProt Q969Y2) | inactive: -0.028 | inactive: 0.047 | inactive: -0.14 | inactive: 0.052 | inactive: -0.063 | inactive: 0.143 | inactive: 0.034 | inactive: 0.032 | inactive: -0.013 | inactive: 0.182 |
| GTF2A2 (UniProt P52657) | inactive: -0.017 | inactive: 0.012 | inactive: 0.039 | inactive: -0.047 | inactive: -0.003 | inactive: 0.045 | inactive: -0.023 | inactive: 0.025 | inactive: -0.011 | inactive: -0.01 |
| GTF2I (UniProt P78347) | inactive: -0.005 | inactive: -0.011 | inactive: -0.039 | inactive: -0.01 | inactive: 0.016 | inactive: -0.086 | inactive: -0.004 | inactive: 0.018 | inactive: -0.066 | inactive: 0.027 |
| HAUS1 (UniProt Q96CS2) | inactive: 0.022 | inactive: -0.068 | inactive: -0.001 | inactive: 0.034 | inactive: 0.009 | inactive: 0.019 | inactive: -0.027 | inactive: -0.017 | inactive: -0.051 | inactive: -0.051 |
| GTF2H3 (UniProt Q13889) | inactive: 0.045 | inactive: -0.073 | inactive: -0.072 | inactive: -0.068 | inactive: -0.007 | inactive: 0.004 | inactive: -0.025 | inactive: -0.015 | inactive: 0.001 | inactive: 0.037 |
| H1FX (UniProt Q92522) | inactive: -0.008 | inactive: 0.001 | inactive: -0.005 | inactive: 0.004 | inactive: -0.025 | inactive: -0.026 | inactive: 0.007 | inactive: -0.003 | inactive: -0.047 | inactive: 0.006 |
| GSTT1 (UniProt P30711) | inactive: 0.031 | inactive: -0.006 | inactive: 0.011 | inactive: 0.034 | inactive: 0.023 | inactive: -0.052 | inactive: -0.016 | inactive: 0.01 | inactive: -0.009 | inactive: -0.058 |
| H6PD (UniProt O95479) | inactive: -0.049 | inactive: -0.105 | inactive: 0.069 | inactive: -0.03 | inactive: 0.065 | inactive: 0.055 | inactive: -0.006 | inactive: -0.138 | inactive: -0.129 | inactive: 0.067 |
| GSTM4 (UniProt Q03013) | inactive: -0.091 | inactive: 0.073 | inactive: -0.006 | inactive: -0.118 | inactive: -0.034 | inactive: 0.011 | inactive: -0.12 | inactive: 0.076 | inactive: 0.029 | inactive: 0.051 |
| HDAC8 (UniProt Q9BY41) | inactive: 0.013 | inactive: 0.018 | inactive: -0.047 | inactive: -0.081 | inactive: 0.093 | inactive: 0.005 | inactive: 0.063 | inactive: 0.045 | inactive: -0.017 | inactive: 0.152 |
| HEATR3 (UniProt Q7Z4Q2) | inactive: -0.003 | inactive: 0 | inactive: -0.074 | inactive: -0.006 | inactive: -0.005 | inactive: -0.078 | inactive: -0.021 | inactive: 0.027 | inactive: -0.064 | inactive: 0.031 |
| HBA1 (UniProt P69905) | inactive: 0.08 | inactive: 0.006 | inactive: -0.001 | inactive: 0.101 | inactive: 0.048 | inactive: -0.004 | inactive: 0.059 | inactive: 0.025 | inactive: -0.031 | inactive: -0.053 |
| GTPBP10 (UniProt A4D1E9) | inactive: -0.007 | inactive: -0.048 | inactive: -0.039 | inactive: -0.004 | inactive: -0.019 | inactive: -0.009 | inactive: -0.103 | inactive: -0.114 | inactive: -0.151 | inactive: -0.019 |
| H1-5 (UniProt P16401) | inactive: -0.026 | inactive: 0.022 | inactive: 0.004 | inactive: 0.02 | inactive: -0.03 | inactive: -0.018 | inactive: -0.046 | inactive: -0.046 | inactive: 0.002 | inactive: -0.028 |
| H1-2 (UniProt P16403) | inactive: -0.028 | inactive: -0.02 | inactive: 0.006 | inactive: -0.002 | inactive: 0.039 | inactive: 0.005 | inactive: -0.002 | inactive: -0.081 | inactive: -0.055 | inactive: -0.005 |
| HDAC3 (UniProt E7ESJ6) | inactive: -0.073 |  |  |  |  |  |  |  |  |  |
| GTF2H1 (UniProt P32780) | inactive: -0.03 | inactive: -0.017 | inactive: -0.028 | inactive: 0.032 | inactive: 0.023 | inactive: 0.035 | inactive: -0.019 | inactive: -0.001 | inactive: -0.03 | inactive: -0.021 |
| HDAC7 isoform 5 (UniProt Q8WUI4) | inactive: 0.015 | inactive: 0.029 | inactive: 0.014 | inactive: -0.015 | inactive: 0.013 | inactive: 0.012 | inactive: 0.014 | inactive: 0.031 | inactive: 0.017 | inactive: 0.026 |
| HDGFL3 (UniProt Q9Y3E1) | inactive: -0.028 | inactive: 0.008 | inactive: 0.04 | inactive: -0.026 | inactive: 0.014 | inactive: 0.031 | inactive: -0.016 | inactive: 0.007 | inactive: 0.058 | inactive: -0.055 |

Random excerpt: 2 records from the list.

| Target | log2 fold change (lapatinib) | log2 fold change (pictilisib) | log2 fold change (crizotinib) | log2 fold change [1] | log2 fold change (duvelisib) | log2 fold change (gandotinib) | log2 fold change (tozasertib) | log2 fold change (doramapimod) | log2 fold change (bafetinib) | log2 fold change [2] |
| --- | --- | --- | --- | --- | --- | --- | --- | --- | --- | --- |
| HDGFL3 (UniProt Q9Y3E1) | inactive: -0.028 | inactive: 0.008 | inactive: 0.04 | inactive: -0.026 | inactive: 0.014 | inactive: 0.031 | inactive: -0.016 | inactive: 0.007 | inactive: 0.058 | inactive: -0.055 |
| HDAC3 (UniProt E7ESJ6) | inactive: -0.073 |  |  |  |  |  |  |  |  |  |
